Reference: EP2899531B1, “Method for detecting a chiral analytes” (Jacobs University Bremen gGmbH, priority 2013, dated 2015)
Part of at least one peptide drawing is inferred or uncertain, most often the ends.

Test system: CB8-MDPP
Assay: Binding constants of chiral analytes with CB8-MDPP receptor complex, UV/Vis titration
Settings: CB8-MDPP (20 µM), H2O, 22 °C; from UV/Vis titrations, estimated error ≤ 10%
Description: Bindungskonstanten zwischen CB8-Farbstoff-Komplexen und den in Tabelle 1 aufgeführten Analyten wurden mittels UV/Vis-Titration in H2O, sofern nicht anders angegeben, durchgeführt. Zu einer Lösung aus dem CB8-Farbstoff-Rezeptor wurde schrittweise eine Lösung des Analyten gegeben, und die UV/Vis-Spektren wurden aufgezeichnet. Die normalisierte Absorption bei 419 nm (CB8-MDAP) oder bei 443 nm (CB8-MDPP) wurde mit einer Gleichung für eine 1:1-Bindung mittels der Kleinstquadratmethode angepasst ([50]).

## C[C@H](N)C(=O)NCC(=O)N[C@H]1CSSC[C@@H](C(=O)O)NC(=O)[C@H](CO)NC(=O)[C@H]([C@@H](C)O)NC(=O)[C@H](Cc2ccccc2)NC(=O)[C@H]([C@@H](C)O)NC(=O)[C@H](CCCCN)NC(=O)[C@H](Cc2c[nH]c3ccccc23)NC(=O)[C@H](Cc2ccccc2)NC(=O)[C@H](Cc2ccccc2)NC(=O)[C@H](CC(N)=O)NC(=O)[C@H](CCCCN)NC1=O [Somatostatin]
  Ka: 17 10^3 M^-1
